Test results published in PubChem BioAssay (NCATS).
The shares of active, inactive and inconclusive entries below differ from those in the screen. For some of these results: Potencies beside an inconclusive call are fits to weak or partial responses and may not hold up. Activity calls are given as the source filed them. Calls follow the shape of the dose curve; as a rule, active = well fitted curve in the direction sought with a large enough effect; inconclusive = small, poorly fitted or top-dose-only effect, or another doubt; inactive = no such curve, though single readings can be large; an effect the other way counts as inactive or inconclusive.

Legend:
[1] = Quantitative High-Throughput drug screen in 47 multiple myeloma cell lines against the NCATS MIPE library collection: Karpas417_ECACC cell viability assay (AID 1918961); settings: Karpas417 myeloma viability, CellTiter-Glo ATP luminescence, 48 h; viability (% of DMSO): at 45.8 µM (top of the series)
Summary of the method: (§1)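 qHTS of the MIPE 4.0 collection: 500 myeloma cells/well, 48 h drug exposure at 37C in 5% CO2, then CellTiter-Glo for 5 min at room temperature before luminescence reading.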

[2] = Quantitative High-Throughput drug screen in 47 multiple myeloma cell lines against the NCATS MIPE library collection: JIM1_ECACC cell viability assay (AID 1918964); settings: JIM1 myeloma viability, CellTiter-Glo ATP luminescence, 48 h; viability (% of DMSO): at 45.8 µM (top of the series)
Summary of the method: (§2)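 Viability readout: CellTiter-Glo luminescence following 5 min room-temperature incubation with reagent. Prior exposure: 48 h, 37C, humidified 5% CO2, 500 cells per well.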

[3] = Quantitative High-Throughput drug screen in 47 multiple myeloma cell lines against the NCATS MIPE library collection: INA6_PLB cell viability assay (AID 1918965; also: nearly all actives have a fitted effect of over 55% in size); settings: INA6 myeloma viability, CellTiter-Glo ATP luminescence, 48 h; series mostly up to 45.8 µM
Summary of the method: as §1

[4] = Quantitative High-Throughput drug screen in 47 multiple myeloma cell lines against the NCATS MIPE library collection: JJN3_DSMZ cell viability assay (AID 1918966; also: nearly all actives have a fitted effect of over 50% in size)
Summary of the method: as §2

[5] = Quantitative High-Throughput drug screen in 47 multiple myeloma cell lines against the NCATS MIPE library collection: Karpas25_ECACC cell viability assay (AID 1918968; also: nearly all actives have a fitted effect of over 35% in size)
Summary of the method: as §2

[6] = Quantitative High-Throughput drug screen in 47 multiple myeloma cell lines against the NCATS MIPE library collection: KMS27_JCRB cell viability assay (AID 1918970); settings: KMS27 myeloma cells, CellTiter-Glo ATP viability, 48 h; viability (% of DMSO): at 45.8 µM (top of the series); also: nearly all actives have a fitted effect of over 30% in size
Summary of the method: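 Luminescent ATP read-out (CellTiter-Glo, 5 min at room temperature) after 48 h compound exposure of 500 KMS27_JCRB cells per well; DMSO wells define full viability and media-only wells zero.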

[7] = Quantitative High-Throughput drug screen in 47 multiple myeloma cell lines against the NCATS MIPE library collection: KMS12PE_JCRB cell viability assay (AID 1918972); settings: KMS12PE myeloma viability, CellTiter-Glo ATP, 48 h; viability: at 45.8 µM (top of the series); also: nearly all actives have a fitted effect of over 30% in size
Summary of the method: as §1

[8] = Quantitative High-Throughput drug screen in 47 multiple myeloma cell lines against the NCATS MIPE library collection: KMS20_JCRB cell viability assay (AID 1918973); settings: CellTiter-Glo ATP, 48 h; viability (% of DMSO): at 45.8 µM (top of the series); also: nearly all actives have a fitted effect of over 45% in size
Summary of the method: as §2

[9] = Quantitative High-Throughput drug screen in 47 multiple myeloma cell lines against the NCATS MIPE library collection: KMS21BM_JCRB cell viability assay (AID 1918974); settings: ATP luminescence, 48 h; viability: at 45.8 µM (top of the series)
Summary of the method: as §2

[10] = Quantitative High-Throughput drug screen in 47 multiple myeloma cell lines against the NCATS MIPE library collection: KMS26_JCRB cell viability assay (AID 1918975); settings: KMS26 myeloma cells viability, CellTiter-Glo ATP, 48 h; viability (% of DMSO): at 45.8 µM (top of the series); also: nearly all actives have a fitted effect of over 45% in size
Summary of the method: as §2

[11] = Quantitative High-Throughput drug screen in 47 multiple myeloma cell lines against the NCATS MIPE library collection: MMM1_PLB cell viability assay (AID 1918976); also: nearly all actives have a fitted effect of over 35% in size
Summary of the method: (§3)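 Viability after 48 h drug exposure was measured as ATP-dependent luminescence. Cells, 500 per well, sat at 37 °C under 5% CO2; DMSO wells set 100%, media-only wells 0%.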

[12] = Quantitative High-Throughput drug screen in 47 multiple myeloma cell lines against the NCATS MIPE library collection: MOLP8_DSMZ cell viability assay (AID 1918977); also: nearly all actives have a fitted effect of over 45% in size
Summary of the method: as §3

[13] = Quantitative High-Throughput drug screen in 47 multiple myeloma cell lines against the NCATS MIPE library collection: NCIH929_DSMZ cell viability assay (AID 1918978); settings: NCI-H929 myeloma viability, CellTiter-Glo ATP, 48 h; series mostly up to 45.8 µM; also: nearly all actives have a fitted effect of over 35% in size
Summary of the method: as §3

[14] = Quantitative High-Throughput drug screen in 47 multiple myeloma cell lines against the NCATS MIPE library collection: OCIMY1_PLB cell viability assay (AID 1918979); also: nearly all actives have a fitted effect of over 35% in size
Summary of the method: as §3

[15] = Quantitative High-Throughput drug screen in 47 multiple myeloma cell lines against the NCATS MIPE library collection: MM1S_ATCC cell viability assay (AID 1918980); also: nearly all actives have a fitted effect of over 45% in size
Summary of the method: as §3

[16] = Quantitative High-Throughput drug screen in 47 multiple myeloma cell lines against the NCATS MIPE library collection: MM1R_ATCC cell viability assay (AID 1918981); also: nearly all actives have a fitted effect of over 35% in size
Summary of the method: as §3

[17] = Quantitative High-Throughput drug screen in 47 multiple myeloma cell lines against the NCATS MIPE library collection: KMS12BM_JCRB cell viability assay (AID 1918971); also: nearly all actives have a fitted effect of over 35% in size
Summary of the method: as §2

[18] = Quantitative High-Throughput drug screen in 47 multiple myeloma cell lines against the NCATS MIPE library collection: H1112_PLB cell viability assay (AID 1918967; also: nearly all actives have a fitted effect of over 30% in size)
Summary of the method: as §2

Measured: Potency
Potency is read from the fitted curve at half-maximal effect.

C[C@]12CCC(=O)C=C1CC[C@@H]1[C@H]3CC[C@](C)(O)[C@@]3(C)CC[C@@H]12
inconclusive: [1] 19.1 µM [cytotoxic, full curve, poor fit] | [3] 38.2 µM [cytotoxic, partial curve, poor fit] | [4] 19.1 µM [cytotoxic, full curve, poor fit] | [5] 42.9 µM [cytotoxic, single point] | [6] 10.8 µM [cytotoxic, partial curve, poor fit] | [8] 0.215 µM [cytotoxic, full curve, poor fit] | [9] 1.91 µM [cytotoxic, full curve, poor fit] | [10] 2.7 µM [cytotoxic, full curve, poor fit] | [11] 27 µM [cytotoxic, partial curve, poor fit] | [12] 6.05 µM [cytotoxic, full curve, poor fit] | [16] 27 µM [cytotoxic, partial curve, poor fit]
active: [7] 15.2 µM | [15] 38.2 µM
inactive: [2] | [13] | [14]

C=C[C@@H]1CN2CCC1C[C@H]2[C@H](O)c1ccnc2ccccc12 (some centres undefined)
inconclusive: [1] 0.833 µM [cytotoxic, full curve, poor fit] | [2] 0.0662 µM [cytotoxic, full curve, poor fit] | [4] 6.62 µM [cytotoxic, full curve, poor fit] | [5] 16.6 µM [cytotoxic, partial curve] | [6] 5.9 µM [cytotoxic, partial curve, poor fit] | [8] 14.8 µM [cytotoxic, partial curve, poor fit] | [9] 6.62 µM [rising, partial curve, poor fit] | [12] 10.5 µM [cytotoxic, full curve, poor fit]

CC(C)N[C@@H]1CCn2c(=O)[nH]c3cccc(c32)[C@@H]1O
inconclusive: [2] 8.33 µM [cytotoxic, full curve] | [3] 16.6 µM [cytotoxic, partial curve] | [17] 14.8 µM [cytotoxic, partial curve, poor fit] | [12] 16.6 µM [cytotoxic, partial curve, poor fit] | [14] 23.5 µM [cytotoxic, single point]
active: [1] 1.05 µM | [6] 0.833 µM | [8] 10.5 µM | [9] 0.833 µM | [11] 18.7 µM | [13] 9.35 µM | [16] 6.62 µM

Cc1[nH]nc2ccc(-c3cncc(OC[C@@H](N)Cc4c[nH]c5ccccc45)c3)cc12
inconclusive: [1] 0.0118 µM [cytotoxic, full curve, poor fit] | [2] 0.0105 µM [rising, full curve, poor fit] | [9] 18.7 µM [cytotoxic, partial curve, poor fit]
active: [4] 0.264 µM | [8] 1.18 µM | [14] 1.87 µM

CC1=C(O)C(=O)C=C2C1=CC=C1[C@@]2(C)CC[C@@]2(C)[C@@H]3C[C@](C)(C(=O)O)CC[C@]3(C)CC[C@]12C
inconclusive: [9] 37.2 µM [rising, partial curve, poor fit]
active: [1] 0.743 µM | [2] 0.743 µM | [4] 0.743 µM | [18] 1.32 µM | [12] 0.418 µM | [14] 0.833 µM

O=[N+]([O-])c1ncc[nH]1
inactive: [1] | [4] | [8] | [9] | [15]
active: [17] 16.6 µM
inconclusive: [2] 0.0066 µM [rising, full curve, poor fit] | [3] 0.0296 µM [rising, full curve, poor fit] | [5] 20.9 µM [cytotoxic, partial curve] | [12] 29.6 µM [cytotoxic, single point] | [14] 18.7 µM [cytotoxic, single point]

Looked up one by one from above, 2 records:
Cc1[nH]nc2ccc(-c3cncc(OC[C@@H](N)Cc4c[nH]c5ccccc45)c3)cc12
inconclusive: [1] 0.0118 µM [cytotoxic, full curve, poor fit] | [2] 0.0105 µM [rising, full curve, poor fit] | [9] 18.7 µM [cytotoxic, partial curve, poor fit]
active: [4] 0.264 µM | [8] 1.18 µM | [14] 1.87 µM

O=[N+]([O-])c1ncc[nH]1
inactive: [1] | [4] | [8] | [9] | [15]
active: [17] 16.6 µM
inconclusive: [2] 0.0066 µM [rising, full curve, poor fit] | [3] 0.0296 µM [rising, full curve, poor fit] | [5] 20.9 µM [cytotoxic, partial curve] | [12] 29.6 µM [cytotoxic, single point] | [14] 18.7 µM [cytotoxic, single point]

Going on with the list.

O=c1[nH]c2ccccc2n1CCCN1CCC(n2c(=O)[nH]c3cc(Cl)ccc32)CC1
active: [9] 0.118 µM
inactive: [4] | [12] | [16]
inconclusive: [1] 0.264 µM [cytotoxic, full curve, poor fit] | [2] 37.2 µM [cytotoxic, single point] | [6] 14.8 µM [cytotoxic, partial curve, poor fit] | [17] 0.0105 µM [rising, full curve, poor fit] | [8] 20.9 µM [cytotoxic, partial curve, poor fit] | [10] 10.5 µM [cytotoxic, partial curve, poor fit] | [11] 37.2 µM [cytotoxic, single point] | [13] 0.209 µM [cytotoxic, full curve, poor fit]

C1=C2CCCN[C@H]2[C@@H]2C[C@H]1[C@@H]1CCCCN1C2
inconclusive: [2] 0.0074 µM [rising, full curve, poor fit] | [3] 0.0526 µM [rising, full curve, poor fit] | [17] 0.001 µM | [8] 0.0332 µM [rising, full curve, poor fit] | [9] 7.43 µM [rising, partial curve, poor fit] | [11] 0.0166 µM [rising, full curve, poor fit]
inactive: [1] | [4] | [5] | [7] | [10] | [12] | [13] | [14] | [15]

COCC1(CO)C(=O)C2CCN1CC2 (centres undefined)
active: [1] 3.72 µM | [2] 6.62 µM | [3] 2.96 µM | [17] 7.43 µM | [7] 9.35 µM | [9] 4.18 µM | [10] 0.662 µM | [12] 0.59 µM | [14] 2.09 µM

COc1ccc2c(c1OC)CN1CCc3cc4c(cc3C1C2)OCO4 (centres undefined)
inactive: [14]
active: [3] 18.7 µM | [5] 18.7 µM | [6] 20.9 µM | [17] 18.7 µM
inconclusive: [1] 13.2 µM [cytotoxic, partial curve, poor fit] | [2] 10.5 µM [cytotoxic, partial curve, poor fit] | [7] 23.5 µM [cytotoxic, partial curve, poor fit] | [8] 2.09 µM [cytotoxic, full curve, poor fit] | [10] 0.003 µM [cytotoxic, full curve, poor fit] | [12] 0.935 µM [cytotoxic, partial curve, poor fit] | [15] 18.7 µM [cytotoxic, partial curve, poor fit] | [16] 6.62 µM [cytotoxic, partial curve, poor fit]
